Reference: the supplement of paper PMC10849652
This is one part of the list.

Protein sequences, listed by entry. Tags and fused reporters are not part of them. Lines headed by an entry give the natural chain unless they say otherwise; changes in a name come on top.
UniProt Q8NCS4: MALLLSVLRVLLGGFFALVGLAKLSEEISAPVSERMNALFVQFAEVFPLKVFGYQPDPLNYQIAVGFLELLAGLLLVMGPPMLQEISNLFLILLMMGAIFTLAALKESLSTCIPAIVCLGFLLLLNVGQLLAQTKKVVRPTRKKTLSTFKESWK
UniProt O95807: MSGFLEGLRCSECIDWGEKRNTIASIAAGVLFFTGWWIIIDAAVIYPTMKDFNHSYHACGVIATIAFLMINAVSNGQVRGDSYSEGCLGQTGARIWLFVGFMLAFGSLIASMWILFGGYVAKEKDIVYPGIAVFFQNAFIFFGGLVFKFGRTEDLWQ
UniProt P06753, whole entry, looked up: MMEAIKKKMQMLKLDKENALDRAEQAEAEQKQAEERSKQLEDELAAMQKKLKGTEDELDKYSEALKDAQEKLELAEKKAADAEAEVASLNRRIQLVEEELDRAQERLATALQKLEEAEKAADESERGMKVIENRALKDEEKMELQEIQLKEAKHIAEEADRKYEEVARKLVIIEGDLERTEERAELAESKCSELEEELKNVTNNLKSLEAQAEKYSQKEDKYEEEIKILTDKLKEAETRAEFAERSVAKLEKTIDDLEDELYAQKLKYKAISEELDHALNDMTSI
UniProt Q9Y2Y6: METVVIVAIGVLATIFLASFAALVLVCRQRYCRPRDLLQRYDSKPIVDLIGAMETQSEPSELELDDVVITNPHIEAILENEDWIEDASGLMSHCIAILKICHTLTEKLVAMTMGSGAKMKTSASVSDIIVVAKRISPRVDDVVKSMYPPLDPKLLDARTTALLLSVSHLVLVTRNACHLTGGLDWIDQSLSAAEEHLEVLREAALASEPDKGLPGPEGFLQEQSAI
UniProt P02585, whole entry, looked up: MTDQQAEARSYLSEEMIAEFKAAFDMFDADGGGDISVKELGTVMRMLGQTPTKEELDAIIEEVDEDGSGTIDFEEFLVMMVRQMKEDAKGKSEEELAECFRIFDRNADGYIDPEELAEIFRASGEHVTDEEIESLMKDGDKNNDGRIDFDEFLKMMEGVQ
UniProt P42167: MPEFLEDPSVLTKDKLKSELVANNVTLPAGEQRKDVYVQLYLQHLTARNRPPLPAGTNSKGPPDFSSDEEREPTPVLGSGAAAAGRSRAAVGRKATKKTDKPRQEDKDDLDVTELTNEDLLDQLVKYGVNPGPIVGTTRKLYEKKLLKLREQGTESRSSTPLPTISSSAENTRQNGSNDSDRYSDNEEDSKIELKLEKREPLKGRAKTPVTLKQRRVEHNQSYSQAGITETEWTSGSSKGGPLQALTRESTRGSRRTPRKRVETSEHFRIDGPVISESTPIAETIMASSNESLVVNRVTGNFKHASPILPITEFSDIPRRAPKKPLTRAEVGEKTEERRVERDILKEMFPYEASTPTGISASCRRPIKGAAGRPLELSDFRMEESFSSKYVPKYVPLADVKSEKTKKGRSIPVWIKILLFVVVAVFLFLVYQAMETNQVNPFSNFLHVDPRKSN
UniProt Q9BRR3: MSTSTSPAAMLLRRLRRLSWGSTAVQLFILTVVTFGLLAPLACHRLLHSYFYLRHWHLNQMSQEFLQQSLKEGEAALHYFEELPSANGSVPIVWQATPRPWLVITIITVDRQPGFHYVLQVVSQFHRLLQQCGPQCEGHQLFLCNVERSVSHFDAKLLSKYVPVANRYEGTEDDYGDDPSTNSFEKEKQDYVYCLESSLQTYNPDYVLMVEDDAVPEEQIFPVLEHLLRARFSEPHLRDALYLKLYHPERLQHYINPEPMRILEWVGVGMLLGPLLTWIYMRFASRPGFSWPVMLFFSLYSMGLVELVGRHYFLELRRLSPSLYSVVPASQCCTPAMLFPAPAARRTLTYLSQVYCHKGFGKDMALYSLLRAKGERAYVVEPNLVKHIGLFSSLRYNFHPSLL
UniProt Q9NWH2: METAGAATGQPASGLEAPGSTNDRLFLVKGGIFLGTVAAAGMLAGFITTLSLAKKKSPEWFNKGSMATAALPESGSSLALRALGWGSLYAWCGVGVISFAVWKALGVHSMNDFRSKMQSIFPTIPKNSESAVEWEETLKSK
UniProt Q9NWD8: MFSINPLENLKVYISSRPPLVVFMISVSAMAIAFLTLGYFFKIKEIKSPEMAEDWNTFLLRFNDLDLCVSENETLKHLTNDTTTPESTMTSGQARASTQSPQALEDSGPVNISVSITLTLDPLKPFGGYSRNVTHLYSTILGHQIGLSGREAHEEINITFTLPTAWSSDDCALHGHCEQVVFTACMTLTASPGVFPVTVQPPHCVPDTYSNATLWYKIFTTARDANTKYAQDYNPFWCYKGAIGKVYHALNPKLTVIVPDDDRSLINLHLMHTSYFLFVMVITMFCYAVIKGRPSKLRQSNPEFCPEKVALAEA
UniProt P55327: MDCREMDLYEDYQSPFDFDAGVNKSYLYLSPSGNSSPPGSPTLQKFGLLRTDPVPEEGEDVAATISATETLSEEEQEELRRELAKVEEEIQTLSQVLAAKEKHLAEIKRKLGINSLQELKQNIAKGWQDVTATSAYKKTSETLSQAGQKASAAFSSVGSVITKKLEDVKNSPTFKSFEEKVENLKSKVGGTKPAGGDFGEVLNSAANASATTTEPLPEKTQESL
UniProt Q8N2U0: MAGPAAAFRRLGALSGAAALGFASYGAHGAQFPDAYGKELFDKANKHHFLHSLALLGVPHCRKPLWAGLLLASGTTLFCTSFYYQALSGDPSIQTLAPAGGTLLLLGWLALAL
UniProt Q13641: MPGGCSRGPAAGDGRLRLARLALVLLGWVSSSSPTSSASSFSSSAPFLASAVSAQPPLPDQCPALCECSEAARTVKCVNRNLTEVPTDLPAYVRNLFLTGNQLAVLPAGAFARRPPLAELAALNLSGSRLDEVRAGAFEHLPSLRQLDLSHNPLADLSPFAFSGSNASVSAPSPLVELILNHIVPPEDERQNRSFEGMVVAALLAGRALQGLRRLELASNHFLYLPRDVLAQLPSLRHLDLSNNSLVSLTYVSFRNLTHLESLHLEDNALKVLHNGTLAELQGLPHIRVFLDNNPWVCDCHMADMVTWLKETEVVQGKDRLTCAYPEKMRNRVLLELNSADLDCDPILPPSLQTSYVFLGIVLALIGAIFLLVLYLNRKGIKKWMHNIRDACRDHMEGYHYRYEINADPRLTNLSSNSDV
UniProt Q4KMQ1: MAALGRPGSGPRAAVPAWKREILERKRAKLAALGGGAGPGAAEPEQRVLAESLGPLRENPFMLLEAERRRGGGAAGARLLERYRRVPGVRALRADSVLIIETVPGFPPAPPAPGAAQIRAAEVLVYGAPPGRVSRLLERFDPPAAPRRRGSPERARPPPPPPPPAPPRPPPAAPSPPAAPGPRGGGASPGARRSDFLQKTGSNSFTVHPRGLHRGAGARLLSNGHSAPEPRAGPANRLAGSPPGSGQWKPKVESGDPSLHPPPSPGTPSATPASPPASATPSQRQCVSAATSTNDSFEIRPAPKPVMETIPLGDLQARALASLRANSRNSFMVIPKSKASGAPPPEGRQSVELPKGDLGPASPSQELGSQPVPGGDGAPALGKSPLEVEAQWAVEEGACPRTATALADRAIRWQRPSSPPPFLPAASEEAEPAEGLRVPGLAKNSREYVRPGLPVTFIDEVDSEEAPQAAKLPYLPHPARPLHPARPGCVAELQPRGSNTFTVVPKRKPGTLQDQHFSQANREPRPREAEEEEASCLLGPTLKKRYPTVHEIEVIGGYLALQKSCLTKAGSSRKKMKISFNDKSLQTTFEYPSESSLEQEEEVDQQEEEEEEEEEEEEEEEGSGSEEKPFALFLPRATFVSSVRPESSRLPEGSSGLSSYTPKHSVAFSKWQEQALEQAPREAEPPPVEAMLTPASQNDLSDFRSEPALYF
UniProt Q9BSE2: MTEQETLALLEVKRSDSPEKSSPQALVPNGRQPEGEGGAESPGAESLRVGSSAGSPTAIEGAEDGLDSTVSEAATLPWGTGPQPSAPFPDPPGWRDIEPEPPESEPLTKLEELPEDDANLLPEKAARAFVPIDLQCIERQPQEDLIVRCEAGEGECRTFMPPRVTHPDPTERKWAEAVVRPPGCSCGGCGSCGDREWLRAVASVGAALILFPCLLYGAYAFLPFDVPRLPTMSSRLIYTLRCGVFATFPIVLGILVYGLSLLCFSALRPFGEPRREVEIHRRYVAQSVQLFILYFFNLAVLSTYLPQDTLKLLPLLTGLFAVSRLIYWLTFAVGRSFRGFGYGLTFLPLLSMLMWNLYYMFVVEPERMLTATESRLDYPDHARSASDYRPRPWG
UniProt Q2T9K0: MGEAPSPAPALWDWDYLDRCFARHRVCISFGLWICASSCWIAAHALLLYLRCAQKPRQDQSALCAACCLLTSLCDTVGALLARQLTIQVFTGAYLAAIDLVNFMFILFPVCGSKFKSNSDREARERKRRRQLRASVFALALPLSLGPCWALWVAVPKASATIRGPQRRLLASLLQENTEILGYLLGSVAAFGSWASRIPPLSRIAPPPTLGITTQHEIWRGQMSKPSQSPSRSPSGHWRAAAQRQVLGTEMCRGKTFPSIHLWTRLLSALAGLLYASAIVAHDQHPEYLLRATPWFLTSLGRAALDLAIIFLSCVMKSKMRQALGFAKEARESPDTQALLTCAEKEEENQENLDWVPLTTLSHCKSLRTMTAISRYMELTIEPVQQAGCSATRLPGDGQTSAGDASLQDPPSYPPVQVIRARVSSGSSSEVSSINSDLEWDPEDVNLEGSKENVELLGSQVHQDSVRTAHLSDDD
UniProt Q9HBL0: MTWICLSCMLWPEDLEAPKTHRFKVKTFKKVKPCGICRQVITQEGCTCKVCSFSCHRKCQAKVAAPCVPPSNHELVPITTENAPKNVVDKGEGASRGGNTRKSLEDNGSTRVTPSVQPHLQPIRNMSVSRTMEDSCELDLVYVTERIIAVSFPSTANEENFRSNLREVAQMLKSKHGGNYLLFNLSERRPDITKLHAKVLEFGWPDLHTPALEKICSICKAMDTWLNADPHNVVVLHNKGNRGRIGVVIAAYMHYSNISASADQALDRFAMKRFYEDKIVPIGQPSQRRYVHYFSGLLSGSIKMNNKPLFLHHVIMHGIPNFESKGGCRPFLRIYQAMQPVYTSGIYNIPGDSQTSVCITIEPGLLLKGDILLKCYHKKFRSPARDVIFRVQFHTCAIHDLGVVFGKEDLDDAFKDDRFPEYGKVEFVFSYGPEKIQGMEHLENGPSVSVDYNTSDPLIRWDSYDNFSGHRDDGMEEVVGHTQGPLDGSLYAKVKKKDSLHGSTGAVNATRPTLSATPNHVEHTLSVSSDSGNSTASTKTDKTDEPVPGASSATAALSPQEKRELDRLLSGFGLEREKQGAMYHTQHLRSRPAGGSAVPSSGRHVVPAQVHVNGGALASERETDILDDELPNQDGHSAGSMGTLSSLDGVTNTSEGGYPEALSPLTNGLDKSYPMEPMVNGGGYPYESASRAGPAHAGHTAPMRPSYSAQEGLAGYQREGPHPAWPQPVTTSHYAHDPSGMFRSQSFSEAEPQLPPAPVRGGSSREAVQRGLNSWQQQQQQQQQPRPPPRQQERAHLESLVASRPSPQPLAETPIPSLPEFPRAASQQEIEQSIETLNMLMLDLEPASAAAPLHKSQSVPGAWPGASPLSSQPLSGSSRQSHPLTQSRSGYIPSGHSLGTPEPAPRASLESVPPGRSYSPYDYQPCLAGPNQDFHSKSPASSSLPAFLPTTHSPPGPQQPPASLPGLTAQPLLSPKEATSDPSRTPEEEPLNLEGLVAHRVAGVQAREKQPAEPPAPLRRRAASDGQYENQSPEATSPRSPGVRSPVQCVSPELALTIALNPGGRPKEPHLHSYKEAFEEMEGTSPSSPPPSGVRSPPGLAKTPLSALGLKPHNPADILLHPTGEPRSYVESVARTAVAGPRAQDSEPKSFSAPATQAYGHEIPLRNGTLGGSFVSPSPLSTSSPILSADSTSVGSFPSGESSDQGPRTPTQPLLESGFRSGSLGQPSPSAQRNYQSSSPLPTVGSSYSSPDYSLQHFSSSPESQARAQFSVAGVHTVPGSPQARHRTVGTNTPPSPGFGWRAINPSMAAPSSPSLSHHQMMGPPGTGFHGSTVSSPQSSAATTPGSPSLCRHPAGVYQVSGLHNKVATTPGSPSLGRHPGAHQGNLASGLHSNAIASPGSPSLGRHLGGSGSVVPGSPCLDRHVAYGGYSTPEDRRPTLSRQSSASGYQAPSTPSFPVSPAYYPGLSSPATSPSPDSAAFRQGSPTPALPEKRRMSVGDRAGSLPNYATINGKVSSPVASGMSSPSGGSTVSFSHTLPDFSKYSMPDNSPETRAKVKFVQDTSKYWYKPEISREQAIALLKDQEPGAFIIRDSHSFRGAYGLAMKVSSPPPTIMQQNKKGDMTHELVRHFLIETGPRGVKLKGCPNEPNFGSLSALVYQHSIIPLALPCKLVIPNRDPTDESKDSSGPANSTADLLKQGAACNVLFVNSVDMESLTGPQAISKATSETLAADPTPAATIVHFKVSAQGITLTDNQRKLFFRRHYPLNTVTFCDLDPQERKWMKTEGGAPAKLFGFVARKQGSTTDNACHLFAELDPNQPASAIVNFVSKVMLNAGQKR

What was measured:
Assay in all cases: log2 fold change, soluble protein after heating vs DMSO (PISA); higher = thermal stabilisation; K562 lysate, 10 uM; active = over 0.2 and 3.5 SD of the protein, either way, in both replicates (recomputed)
[1] = compound: CC(=O)c1cnc2ccc(-c3cc(Cl)c(O)c(Cl)c3)nc2c1N[C@H]1CC[C@H](CN(C)C)CC1
Method in brief: (§1)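 Dounce homogenisation of K562 pellets in PBS pH 7.4 with 1 mM MgCl2 produced a crude extract, used at 1 mg/mL protein. Exposure to 10 μM compound lasted 30 min, and aliquots were then heated for 3 min across 48°C-58°C, pooled and brought to 0.5% NP-40 at 4°C. The supernatant after 21,000xg for 90 min was quantified by TMTpro 16plex LC-MS/MS with channel sums equalised. Duplicate values are given as log-two fold change in thermal stability relative to solvent controls.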

ralimetinib = compound: CC(C)(C)Cn1c(N)nc2ccc(-c3[nH]c(C(C)(C)C)nc3-c3ccc(F)cc3)nc21 [ralimetinib]
Method in brief: as §1

[2] = compound: CC(C)(O)CC(=O)NCCn1ccc2ncnc(Nc3ccc(Oc4cccc(C(F)(F)F)c4)c(Cl)c3)c21
Method in brief: as §1

[3] = compound: CC(C)C1=C2N=C(C=C(N2N=C1)NCC3=CC=CC=C3)NCCCCCCN
Method in brief: as §1

[4] = compound: CC1=C(C(CC(=O)N1)C2=CC=C(C=C2)C(F)(F)F)C(=O)NC3=C(C=C4C(=C3)C=NN4)F
Method in brief: as §1

[5] = compound: CC1=C(C2=C(C=C1)C(=O)C3=CC=CC=C3N2CCCN)C
Method in brief: as §1

[6] = compound: CC1=C(C=C(C=C1)NC(=O)C2=CC(=CC=C2)C(C)(C)C#N)NC3=CC4=C(C=C3)N=CN(C4=O)C
Method in brief: as §1

[7] = compound: CC1=C(C=C(C=C1)NC(=O)C2=CC(=CC=C2)N(C)C)NC(=O)C3=CC=C(C=C3)O
Method in brief: as §1

[8] = compound: CC1=CC=C(C=C1)SC2=C3C=C(SC3=CN=C2)C(=O)N
Method in brief: as §1

vemurafenib = compound: CCCS(=O)(=O)Nc1ccc(F)c(C(=O)c2c[nH]c3ncc(-c4ccc(Cl)cc4)cc23)c1F [vemurafenib]
Method in brief: as §1

[9] = compound: CCCS(=O)(=O)Nc1ccc(F)c(C(=O)c2c[nH]c3ncc(Cl)cc23)c1F
Method in brief: as §1

[10] = compound: CC[C@@H]1C(=O)N(C)c2cnc(Nc3ccc(C(=O)NC4CCN(C)CC4)cc3OC)nc2N1C1CCCC1
Method in brief: as §1

volasertib = compound: CC[C@@H]1C(=O)N(C)c2cnc(Nc3ccc(C(=O)N[C@H]4CC[C@H](N5CCN(CC6CC6)CC5)CC4)cc3OC)nc2N1C(C)C [volasertib]
Method in brief: as §1

[11] = compound: CCn1c(C(=O)N(C2CC2)C2CC2)cc2c3c(ncn3C)c(Nc3cc(C)n(C)n3)nc21
Method in brief: as §1

[12] = compound: CCn1cc(-c2ccnc3[nH]c(-c4cccc(CN(C)C)c4)cc23)c(-c2ccc(NC(=O)N(C)C)cc2)n1
Method in brief: as §1

[13] = compound: CN1CCC(CNc2ccc3ncc(-c4cccc(OC(F)(F)F)c4)n3n2)CC1
Method in brief: as §1

saracatinib = compound: CN1CCN(CCOc2cc(OC3CCOCC3)c3c(Nc4c(Cl)ccc5c4OCO5)ncnc3c2)CC1 [saracatinib]
Method in brief: as §1

sotrastaurin = compound: CN1CCN(c2nc(C3=C(c4c[nH]c5ccccc45)C(=O)NC3=O)c3ccccc3n2)CC1 [sotrastaurin]
Method in brief: as §1

ibrutinib = compound: C=CC(=O)N1CCC[C@@H](n2nc(-c3ccc(Oc4ccccc4)cc3)c3c(N)ncnc32)C1 [ibrutinib]
Method in brief: as §1

barasertib = compound: CCN(CCCOc1ccc2c(Nc3cc(CC(=O)Nc4cccc(F)c4)[nH]n3)ncnc2c1)CCOP(=O)(O)O [barasertib]
Method in brief: as §1

Measured: log2 fold change

TNKS (UniProt O95271)
inactive: [1] 0.038 | ralimetinib -0.04 | [2] 0.022 | [3] -0.045 | [4] -0.001 | [5] -0.076 | [6] 0.004 | [7] 0.006 | [8] 0.124 | vemurafenib -0.035 | [9] 0.124 | [10] 0.055 | volasertib -0.11 | [11] 0.027 | [12] 0.207 | [13] -0.092 | saracatinib -0.007 | sotrastaurin 0.021

TMEM35B (UniProt Q8NCS4)
inactive: [1] 0.051 | ralimetinib 0.099 | [2] -0.031 | [3] 0.037 | [6] 0.109 | [7] -0.056 | [8] 0.153 | vemurafenib 0.158 | [9] 0.184 | volasertib -0.132 | [11] 0.058 | sotrastaurin -0.004

TMEM50A (UniProt O95807)
inactive: [10] 0.121

TPM3 isoform 3 (UniProt P06753)
inactive: [1] 0.066 | ralimetinib 0.145 | [2] 0.093 | [3] -0.125 | [5] 0.005 | [6] -0.157 | [7] 0.012 | [8] -0.032 | vemurafenib -0.082 | [9] 0.011 | [10] -0.187 | volasertib 0.036 | [11] 0.029 | [12] -0.493 | [13] 0.184 | saracatinib 0.009 | sotrastaurin 0.028

TMEM98 (UniProt Q9Y2Y6)
inactive: ralimetinib 0.079 | [2] 0.043 | [4] -0.017 | [7] -0.048 | [11] -0.298 | [12] 0.019 | [13] 0.012

TNNC2 (UniProt P02585)
inactive: [1] -0.031 | ralimetinib 0.015 | [2] 0.013 | [3] 0.031 | [4] -0.022 | [5] -0.029 | [6] -0.036 | [7] 0.003 | [8] 0.016 | vemurafenib -0.035 | [9] -0.006 | [10] -0.001 | volasertib 0.087 | [11] 0.007 | [12] -0.17 | [13] 0.019 | saracatinib 0.027 | sotrastaurin 0.042

TNFAIP1 (UniProt Q13829)
inactive: ibrutinib -0.04 | ralimetinib -0.075 | [2] 0.014 | [7] 0.042 | barasertib 0.101 | [11] 0.221 | [12] -0.138 | [13] -0.064

TNFSF9 (UniProt P41273)
inactive: [12] 0.157 | [13] 0.047

TPD52L2 isoform 3 (UniProt O43399)
inactive: ibrutinib 0.288 | ralimetinib 0.167 | [2] -0.038 | [3] 0.017 | [4] -0.007 | [7] 0.107 | barasertib 0.026 | [11] -0.028 | [12] -0.141 | [13] 0.135

TMPO isoform 2 (UniProt P42167)
inactive: ibrutinib -0.108 | [5] -0.006 | vemurafenib 0.08 | barasertib 0.185 | [10] 0.075 | saracatinib 0.044

TMEM246 (UniProt Q9BRR3)
inactive: ibrutinib 0.077 | ralimetinib 0.062 | [2] -0.261 | [3] 0.077 | [7] 0.042 | barasertib 0.284 | [11] -0.109

TMTC4 isoform 3 (UniProt Q5T4D3)
inactive: ralimetinib 0.208 | [2] -0.078 | [5] -0.258 | [7] -0.401 | [10] -0.021 | [11] -0.18 | saracatinib 0.093

TMEM242 (UniProt Q9NWH2)
inactive: ibrutinib -0.233 | ralimetinib -0.013 | [2] -0.103 | [4] 0.059 | [5] -0.227 | [6] -0.053 | [7] 0.108 | vemurafenib -0.208 | barasertib 0.017 | [10] -0.005 | [11] 0.018 | [12] 0.073 | [13] -0.048 | saracatinib 0.059 | sotrastaurin 0.019

TMEM248 (UniProt Q9NWD8)
inactive: ralimetinib -0.261 | [2] -0.02 | [3] -0.233 | [4] 0.138 | [5] -0.021 | [6] 0.122 | [7] -0.026 | vemurafenib 0.021 | [10] 0.02 | [11] 0.089 | [12] -0.032 | [13] -0.086 | saracatinib 0.036 | sotrastaurin -0.092

TPD52 isoform 3 (UniProt P55327)
inactive: [1] -0.115 | ralimetinib 0.179 | [2] 0.029 | [3] 0.006 | [7] 0.036 | [8] -0.258 | [9] 0.136 | [10] -0.043 | volasertib -0.326 | [11] 0.148

TMEM237 isoform 3 (UniProt Q96Q45)
inactive: [1] 0.044 | ralimetinib 0.144 | [2] -0.04 | [4] -0.035 | [5] 0.068 | [6] -0.068 | [7] -0.06 | [8] -0.053 | vemurafenib 0.047 | [9] 0.219 | volasertib -0.002 | [11] 0.175 | [12] -0.13 | [13] 0.103 | saracatinib 0.04 | sotrastaurin -0.021

TMEM256 (UniProt Q8N2U0)
inactive: [1] -0.059 | [5] 0.141 | [8] 0.084 | vemurafenib -0.081 | [9] 0.035 | [10] -0.035 | volasertib 0.09 | saracatinib 0.132

TPBG (UniProt Q13641)
inactive: [3] 0.071 | [5] -0.277 | [6] 0.151 | vemurafenib 0.009 | [10] 0.035 | saracatinib 0.124 | sotrastaurin -0.041

TMEM250 (UniProt H0YL14)
inactive: [6] 0.201 | sotrastaurin 0.257

TNNC1 (UniProt P63316)
inactive: ibrutinib 0.402 | barasertib 0.585 | [12] 0.509 | [13] 0.325

TPRN (UniProt Q4KMQ1)
inactive: [5] 0.208 | [6] -0.003 | saracatinib -0.093 | sotrastaurin -0.118

TMEM268 isoform 3 (UniProt Q5VZI3)
inactive: ralimetinib -0.222 | [2] 0.084 | [5] -0.11 | [6] 0.062 | [7] 0.08 | [10] 0.129 | [11] 0.206 | [12] 0.068 | [13] 0 | saracatinib 0.134 | sotrastaurin -0.018

TMEM79 (UniProt Q9BSE2)
inactive: [4] -0.084

TMX4 (UniProt Q9H1E5)
inactive: ibrutinib -0.029 | ralimetinib 0.008 | [2] -0.081 | [3] -0.016 | [4] 0.044 | [5] -0.058 | [6] 0.036 | [7] -0.046 | vemurafenib 0.072 | barasertib 0.047 | [10] 0.022 | [11] 0.015 | [12] -0.05 | [13] -0.025 | saracatinib 0.012 | sotrastaurin -0.005

Reprinted from the entries so far (two entries):
TPRN (UniProt Q4KMQ1)
inactive: [5] 0.208 | [6] -0.003 | saracatinib -0.093 | sotrastaurin -0.118

TMEM268 isoform 3 (UniProt Q5VZI3)
inactive: ralimetinib -0.222 | [2] 0.084 | [5] -0.11 | [6] 0.062 | [7] 0.08 | [10] 0.129 | [11] 0.206 | [12] 0.068 | [13] 0 | saracatinib 0.134 | sotrastaurin -0.018

More records follow:

TNK2 isoform 3 (UniProt Q07912)
inactive: ibrutinib -0.236 | ralimetinib -0.1 | [2] -0.181 | [6] 0.044 | [7] 0.053 | barasertib 0.058 | [11] 0.127 | [12] -0.061 | [13] -0.244 | sotrastaurin -0.058

TMEM44 (UniProt Q2T9K0)
inactive: ibrutinib 0.088 | [1] -0.059 | [5] 0.102 | [8] -0.104 | [9] 0.061 | barasertib 0.078 | [10] 0.094 | volasertib 0.004 | saracatinib -0.067

TNS1 (UniProt Q9HBL0)
inactive: ibrutinib -0.121 | [4] 0.061 | [6] -0.053 | barasertib 0.232 | [10] 0.14 | [12] -0.112 | [13] 0.215 | sotrastaurin 0.059

TPRG1L (UniProt Q5T0D9)
inactive: [1] 0.077 | ralimetinib -0.069 | [2] 0.143 | [3] -0.024 | [4] -0.062 | [5] 0.028 | [6] 0.116 | [7] -0.028 | [8] 0.019 | vemurafenib 0.044 | [9] 0.031 | [10] 0.004 | volasertib -0.029 | [11] 0.154 | [12] -0.025 | [13] 0.106 | saracatinib 0.043 | sotrastaurin -0.03
